Source: PubChem BioAssay AID504784 (Drosophila RNAi Screening Center, 2011)
In all, the deposit lists about 17,000 reagents; this is an unselected part of those that have a named target and a result. 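Each column is one replicate's B-score; the combined score over replicates was not deposited, so single values may mislead.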 A plus sign joins genes that one reagent is predicted to hit. Further read-outs or replicates are left out here.

- Purpose: 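Genome-wide knock-down for genes giving too much or too little stored lipid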 (primary screen)
- System: Drosophila Kc167 embryonic cells
- Knock-down reagent: long dsRNA against Drosophila genes, about 250 ng dsRNA per well
- Duration: 4 days
- Treatment: cells fed 400 µM oleic acid bound to BSA
- Measurement: 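Cells imaged and segmented; ratio of lipid droplet area to nuclear area, log-transformed, then normalised as a B-score over the screen; higher means more stored lipid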
- Scale: droplet/nuclear area B-score: higher = more stored lipid (overstorage)

droplet/nuclear area B-score, replicate 1, by predicted target and reagent
Herc4 (GeneID 38151): DRSC08631 -0.502
CG33958 (GeneID 37088): DRSC06472 -3.03; DRSC06944 -1.6
CG11703 (GeneID 42307): DRSC14356 -0.907
CG18539 (GeneID 37096): DRSC06766 -2.27
CycK (GeneID 49816): DRSC03714 0.241
CG33136 (GeneID 318894): DRSC05744 0.0214
Pxt (GeneID 42131): DRSC17040 2.21
Frq2 (GeneID 32799): DRSC20245 0.307
CG33110 (GeneID 42659): DRSC14694 -1.01; DRSC16137 1.11
Rcc1 (GeneID 38669): DRSC09684 -0.0263
ATPsynepsilonL (GeneID 326144): DRSC14548 -0.0401
mod (GeneID 43764): DRSC16999 -0.235
CG13700 (GeneID 40013): DRSC10049 -1.43
Rme-8 (GeneID 35939): DRSC07054 0.0643
CG8401 (GeneID 36770): DRSC07165 2.62
CG13226 (GeneID 36184): DRSC06346 -0.61
CG2955 (GeneID 33622): DRSC00552 -0.877
CG17199 (GeneID 42401): DRSC15192 0.807
Sf3b2 (GeneID 33514): DRSC00619 -3.06
CG33474 (GeneID 2768725): DRSC05218 -0.37
CG31698 (GeneID 318888): DRSC22226 -0.832
ash2 (GeneID 42936): DRSC16902 -0.862
Ifrd1 (GeneID 33489): DRSC00415 0.835; DRSC00566 0.573
cold (GeneID 33237): DRSC00538 -0.272
yip3 (GeneID 37683): DRSC04724 -0.0823
LSm1 (GeneID 37413): DRSC04458 2.44
nudE (GeneID 39169): DRSC09000 0.471; DRSC10962 -0.113
Mal-A1 (GeneID 35824): DRSC07461 1.23
CG9294 (GeneID 37491): DRSC04537 -0.256
uncNacbeta (GeneID 33232): DRSC00326 -0.564
Adk3 (GeneID 44750): DRSC05917 -0.364
pns (GeneID 38178): DRSC08598 -1.86
Rsph3 (GeneID 38751): DRSC09696 -0.181; DRSC10211 -1.03
Coq9 (GeneID 246650): DRSC22913 0.474
Obp58d (GeneID 37609): DRSC04162 0.553
CG5255 (GeneID 42073): DRSC15754 -0.659
Tango4 (GeneID 32168): DRSC19786 0.361
SMC2 (GeneID 36653): DRSC07544 -0.24
CG13590 (GeneID 37907): DRSC04226 -1.98
nAChRbeta3 (GeneID 33228): DRSC00325 1.76
RpS10a (GeneID 43321): DRSC14161 0.803
CR18275 + CR18166 + CG32817: DRSC17249 -0.0964
CG13319 (GeneID 36423): DRSC06356 1.61
CG9254 (GeneID 34773): DRSC01969 -0.27
drl (GeneID 44355): DRSC03523 1.21
Eglp3 (GeneID 37738): DRSC04293 1.62
Rbbp5 + CG6434 (retired record): DRSC10635 0.145
EloA (GeneID 42749): DRSC16109 0.263

7 successive records already listed, for reference:
droplet/nuclear area B-score, replicate 1, by predicted target and reagent
SMC2 (GeneID 36653): DRSC07544 -0.24
CG13590 (GeneID 37907): DRSC04226 -1.98
nAChRbeta3 (GeneID 33228): DRSC00325 1.76
RpS10a (GeneID 43321): DRSC14161 0.803
CR18275 + CR18166 + CG32817: DRSC17249 -0.0964
CG13319 (GeneID 36423): DRSC06356 1.61
CG9254 (GeneID 34773): DRSC01969 -0.27

Next results:
droplet/nuclear area B-score, replicate 1, by predicted target and reagent
Eaf6 (GeneID 38637): DRSC09901 0.624
chrb (GeneID 39284): DRSC11335 0.259
LManI (GeneID 34436): DRSC02838 -5.47
dbr (GeneID 33161): DRSC00274 -0.0303
GNBP3 (GeneID 39020): DRSC11170 0.868
CG18469 (GeneID 36943): DRSC21838 -1.41
PXo (GeneID 38666): DRSC09734 -1.67
PGRP-LD + Cralbp + Pmi: DRSC09743 -0.472
Zasp52 (GeneID 36740): DRSC06269 1.05; DRSC07121 0.496
Upf3 (GeneID 37792): DRSC04092 0.253
Acsf2 (GeneID 33766): DRSC02172 0.138
Asx (GeneID 36612): DRSC05924 1.22
Nopp140 (GeneID 40433): DRSC11872 -0.0743
OSCP1 (GeneID 36300): DRSC06304 0.99
CG15629 (GeneID 33679): DRSC00464 1.06
dop (GeneID 39686): DRSC10655 1.73
Dph2 (GeneID 41802): DRSC16222 0.574
mRpS18C (GeneID 43609): DRSC16538 2.56
CG10559 (GeneID 43063): DRSC14255 -0.0435
CG6931 (GeneID 39363): DRSC10750 0.191
Gyf (GeneID 43842): DRSC17202 1.4
Dtwd2 + Obp84a: DRSC12603 0.275
Nepl18 (GeneID 43410): DRSC14879 1.84
CG32110 (GeneID 317858): DRSC09220 1.84
Pgm2b (GeneID 36649): DRSC05978 -0.613
Jon25Bii (GeneID 33707): DRSC03114 0.972
CG42367 (GeneID 318998): DRSC21388 1.18
CG13117 (GeneID 34289): DRSC02215 -0.0348
CG32726 (GeneID 318175): DRSC17521 -1.11
